Assay results published in paper PMC8053200.
At least one result comes from cells or an extract, where the contact may be indirect. For some of these results: No signal at the amounts used counts as a negative. For some of these results: Tags and fusion partners may be left off the protein sequences shown. For some of these results: Construct, isoform or probe ends are uncertain for at least one entry.

Chains of the proteins cited; added tags and fusions are not shown.
UniProt Q04206, whole entry: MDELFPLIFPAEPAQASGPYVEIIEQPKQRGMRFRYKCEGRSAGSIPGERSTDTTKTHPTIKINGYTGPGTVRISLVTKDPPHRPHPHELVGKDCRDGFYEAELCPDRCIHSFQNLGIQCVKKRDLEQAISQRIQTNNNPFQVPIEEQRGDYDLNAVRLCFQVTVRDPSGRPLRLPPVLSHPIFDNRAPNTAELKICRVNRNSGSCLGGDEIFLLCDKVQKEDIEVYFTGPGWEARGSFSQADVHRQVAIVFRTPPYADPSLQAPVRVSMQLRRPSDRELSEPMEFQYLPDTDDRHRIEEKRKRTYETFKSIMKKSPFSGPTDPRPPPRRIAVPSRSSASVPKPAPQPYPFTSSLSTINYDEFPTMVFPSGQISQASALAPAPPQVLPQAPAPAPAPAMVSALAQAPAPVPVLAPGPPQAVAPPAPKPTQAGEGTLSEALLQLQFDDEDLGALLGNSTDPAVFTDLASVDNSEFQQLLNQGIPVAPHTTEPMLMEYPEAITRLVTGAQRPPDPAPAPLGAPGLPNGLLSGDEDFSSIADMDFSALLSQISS

What was measured:
[1] = target: RelA (p65) (human (umbilical cord blood-derived EPCs)) (UniProt Q04206); assay: pull-down (DAPA) with immunoblot; details: untreated EPC nuclear extract; protein in an extract; label: biotin at both 5' and 3' ends
[2] = target: p-RelA (phosphorylated RelA) (human (umbilical cord blood-derived EPCs)) (UniProt Q04206); assay: pull-down (DAPA) with immunoblot; details: untreated EPC nuclear extract; protein in an extract; label: biotin at both 5' and 3' ends
[3] = target: T1, p50 (NF-kB1) (human (umbilical cord blood-derived EPCs)) (UniProt P19838); assay: pull-down (DAPA) with immunoblot; details: untreated EPC nuclear extract; protein in an extract; label: biotin at both 5' and 3' ends
T1 sequence (looked up, limits assumed): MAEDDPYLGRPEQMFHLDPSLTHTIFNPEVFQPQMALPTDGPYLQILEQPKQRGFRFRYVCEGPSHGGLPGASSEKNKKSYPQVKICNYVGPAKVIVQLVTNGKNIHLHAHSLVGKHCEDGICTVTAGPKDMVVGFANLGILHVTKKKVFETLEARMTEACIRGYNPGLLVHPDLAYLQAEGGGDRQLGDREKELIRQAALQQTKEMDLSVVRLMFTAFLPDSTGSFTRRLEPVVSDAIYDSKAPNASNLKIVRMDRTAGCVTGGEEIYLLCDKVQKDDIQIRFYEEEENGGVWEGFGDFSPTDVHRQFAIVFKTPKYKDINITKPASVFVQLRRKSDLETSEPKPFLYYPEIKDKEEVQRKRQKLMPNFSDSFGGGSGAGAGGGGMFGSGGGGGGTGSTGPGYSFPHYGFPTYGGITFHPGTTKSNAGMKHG

[4] = target: RelA (p65) (human (umbilical cord blood-derived EPCs)) (UniProt Q04206); assay: EMSA with antibody (anti-RelA dissipated the specific band); details: untreated EPC nuclear extract, band eliminated by 50-200x unlabeled probe; LightShift Chemiluminescent EMSA Kit per manufacturer (buffer, salt, pH not stated); nuclear extract with probe 20 min at room temperature; protein in an extract; label: biotin at both 5' and 3' ends

CAGGGTCCCCTGGGCTTCCCAAGCCGCGCACCTCT (double strand) [CXCR4-biotin probe (CXCR4 promoter -130 to -164)]
binding result [1]: binds | binding result [2]: no binding | binding result [3]: no binding | binding result [4]: binds
